Measured values from publication PMC11237091.
Results are given in words; binding and its absence hold for the method and conditions named. In cells and extracts the contact can be indirect. Some binding calls cover weakened binding; strength is not graded here.

The chains behind the UniProt entries cited, without tags or fusion partners.
UniProt P23443: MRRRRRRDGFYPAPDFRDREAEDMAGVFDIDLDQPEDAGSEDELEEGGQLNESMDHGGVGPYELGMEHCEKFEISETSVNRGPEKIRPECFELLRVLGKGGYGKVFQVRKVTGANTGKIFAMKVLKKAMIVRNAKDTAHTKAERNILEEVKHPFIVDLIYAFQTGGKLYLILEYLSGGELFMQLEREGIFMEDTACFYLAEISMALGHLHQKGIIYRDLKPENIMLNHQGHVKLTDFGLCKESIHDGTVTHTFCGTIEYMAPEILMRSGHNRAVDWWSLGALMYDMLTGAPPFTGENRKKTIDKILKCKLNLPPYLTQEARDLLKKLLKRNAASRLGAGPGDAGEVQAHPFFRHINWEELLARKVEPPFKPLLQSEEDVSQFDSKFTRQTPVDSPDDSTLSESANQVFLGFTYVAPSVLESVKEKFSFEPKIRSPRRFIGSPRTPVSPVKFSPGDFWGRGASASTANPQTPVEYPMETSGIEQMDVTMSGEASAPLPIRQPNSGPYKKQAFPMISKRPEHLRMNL
UniProt P67809: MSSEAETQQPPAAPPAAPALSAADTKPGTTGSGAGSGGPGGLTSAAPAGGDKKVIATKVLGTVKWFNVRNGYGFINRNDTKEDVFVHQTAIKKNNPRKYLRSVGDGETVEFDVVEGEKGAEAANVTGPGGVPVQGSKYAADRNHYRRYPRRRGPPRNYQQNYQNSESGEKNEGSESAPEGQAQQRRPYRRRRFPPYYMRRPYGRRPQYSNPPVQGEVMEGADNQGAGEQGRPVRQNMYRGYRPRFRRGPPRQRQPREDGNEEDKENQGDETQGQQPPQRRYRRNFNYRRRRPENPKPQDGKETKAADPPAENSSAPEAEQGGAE

Tests used:
[1] = biological target: p70S6K (human (endogenous in ES cell lines)) (UniProt P23443); experiment: co-IP; ES cell lysates incubated with primary antibodies overnight, beads 4 h, Western blot; normal IgG as negative control; also after mutation of Ser102 of YBX1 and after SETD8 knockdown
[2] = biological target: T1, SETD8 (lysine methyltransferase 5A) (human (endogenous in A673 and other ES cell lines)) (UniProt Q9NQR1); experiment: co-IP; interaction detected in the cytoplasm and in the nucleus of ES cells (Fig. S6E, F)
T1 sequence: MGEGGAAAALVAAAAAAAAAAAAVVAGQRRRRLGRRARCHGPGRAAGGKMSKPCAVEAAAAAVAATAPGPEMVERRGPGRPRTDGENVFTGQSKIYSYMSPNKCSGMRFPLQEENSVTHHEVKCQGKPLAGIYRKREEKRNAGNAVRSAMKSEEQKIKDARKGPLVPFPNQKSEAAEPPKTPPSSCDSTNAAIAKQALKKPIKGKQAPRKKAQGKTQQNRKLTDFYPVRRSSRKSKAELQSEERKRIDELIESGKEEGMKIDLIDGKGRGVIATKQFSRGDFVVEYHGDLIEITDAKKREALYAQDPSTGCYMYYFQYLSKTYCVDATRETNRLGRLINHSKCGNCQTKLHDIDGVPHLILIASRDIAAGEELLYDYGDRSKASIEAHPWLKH

[3] = biological target: T1, SETD8 (lysine methyltransferase 5A) (human (endogenous in A673 and other ES cell lines)); experiment: co-IP; ES cell lysates incubated with primary antibodies overnight, beads 4 h, Western blot; normal IgG as negative control; also after mutation of Ser102 of YBX1 and after SETD8 knockdown

Row | Substance | binding [1] | binding [2] | binding [3]
1 | YBX1 (from UniProt P67809 1-324) (other; other documents disagree on this pair) | no binding | – | –
2 | YBX1 (from UniProt P67809 1-324) | – | binds | binds
